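Whole-parasite assay of Trypanosoma brucei over 72 hours; the read-out is not stated. Tested at 10 µM. Higher reads as stronger inhibition (inferred: compounds with an IC50 in retests scored well above the rest). Values scatter widely below zero; nearly all retest evidence comes from the higher of the two concentrations used. About 2,700 compounds were tested under these conditions; 0.51% (about 14) showed 50% or more at least once.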

Values are the deposited “Percent Effect”, in %. The record does not define 0% and 100%; most values in the screen are far below 50% and negative numbers occur (in some assays of this library far below -100). Compounds were drawn at random from those tested, without regard to their results.

SMILES,percent effect
CCn1cc(CN2CCCN(C(=O)c3ccccc3C)CC2)cn1,-46.69
CC(C)N(C)S(=O)(=O)N(C)Cc1ccc2c(c1)OCCO2,-15.77
COC(=O)C(NC(=O)C1CCCC1)c1cc(F)ccc1F (stereo not shown),-60.97
CC(=O)N(Cc1ncc(C(C)C)o1)C1CCN(Cc2cc(C)no2)C1 (stereo not shown),-96.61
Cc1ccc(S(=O)(=O)NC(=O)COc2cccc(C(N)=O)c2)s1,-1.551
COCCN1CCC(NCc2c(F)cccc2F)C1 (stereo not shown),-23.03
Cc1cnc(CN(C)C2CCN(Cc3nc4ccccc4s3)C2)o1 (stereo not shown),-28.78
Cc1nc(C2CCCN(C(=O)c3cc(Cl)c4c(c3)OCO4)C2)no1 (stereo not shown),-13.1
CC(C)c1nnc2n1CCN(CCC(=O)Nc1sccc1C#N)C2,-31.35
Cc1ncccc1CNCC1CCCN1c1cccnn1 (stereo not shown),-31.65
CNc1nc(CNC(=O)Nc2cccc(CC(F)(F)F)c2)cs1,-67.62
Cc1cnn(CC2CCCN2CC(=O)Nc2cc(C(C)C)no2)c1 (stereo not shown),-47.84
Cc1noc(C(C)C)c1C(=O)NCCN1CCOCC1,-36.21
Cc1cnc(C(=O)N2CCC(C(=O)c3cc(F)ccc3F)CC2)cn1,-86.27
CCc1noc(CN2CCN(Cc3cccs3)CC2)n1,-25.23
CCN(CC)S(=O)(=O)N(CC)Cc1ccc2c(c1)OCCO2,-33.36
Cc1cccc(C(CNC(=O)NCc2cc[nH]n2)N2CCOCC2)c1 (stereo not shown),-60.58
O=C(CNCCn1cccn1)NCC1(c2ccccc2)CCOCC1,-17.53
O=C1CC(N(C(=O)c2ccc(F)c(C(F)(F)F)c2)C2CC2)C(=O)N1 (stereo not shown),-65.61
Cc1nc(C)n(CC2CCCN(CCC(=O)NC3CCCC3)C2)n1 (stereo not shown),-88.1

Source: ChEMBL document CHEMBL3988442, “University of Dundee, Small-Polar-MMV Screening Library” (2021).